In assay [1] the target is T1, tetraspanin 8 (human (endogenous in glioma cell lines and glioma tissues)) (UniProt P19075).
T1 sequence: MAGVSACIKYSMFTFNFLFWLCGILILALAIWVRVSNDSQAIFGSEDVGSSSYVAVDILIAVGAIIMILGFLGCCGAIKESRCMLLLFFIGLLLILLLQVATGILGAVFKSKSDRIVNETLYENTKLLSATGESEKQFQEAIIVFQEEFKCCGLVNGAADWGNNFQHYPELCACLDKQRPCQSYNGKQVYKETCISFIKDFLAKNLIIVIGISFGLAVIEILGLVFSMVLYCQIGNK
Put plainly: co-IP; lysates of four human glioma tissues (grade 3-4); IP lysis buffer containing 3% CHAPS, indicated antibody overnight at 4 °C, protein A/G Sepharose, Western blot; precipitating antibody not given.

Assay [2] addresses T1, tetraspanin 8 (human (endogenous in glioma cell lines and glioma tissues)). Put plainly: co-IP; lysates of human glioma cell lines (CGH-5, TJ-899, SGH-44, TJ-905, U251MG); IP lysis buffer containing 3% CHAPS, indicated antibody overnight at 4 °C, protein A/G Sepharose, Western blot; precipitating antibody not given. Background: A western blot detects proteins with antibodies after separation by electrophoresis.

Our source for the binding values is paper PMC4394480.

These are yes or no findings as the source states them, for the method shown. In cells and extracts the contact can be indirect. A result given as binding can be weak or reduced; the word gives no strength.

For the substance integrin α3, the binding result in assay [1] and in assay [2] was “binds” in each case.
